Assay results from patent EP0788796A1, “URICOSURIC AGENT” (priority 1995, dated 1997).

Assay: Uric acid excreting and diuretic actions in rats
Format: in vivo, Wistar rats
Description: Three female Wistar rats (4-week old) in each group were administered orally with 300 or 1000 mg/kg of a test compound in a volume of 10 ml/kg as suspended in an aqueous solution of 0.5% carboxymethylcellulose sodium or 5% gum arabic; immediately thereafter, the animals were loaded orally with 25 ml/kg of physiological saline and the urine was collected up to 5 h after the administration of the test compound. The collected urine was immediately measured quantitatively and the urinary concentration of uric acid was measured by a urikase method in accordance with the procedure of Kabasakalian et al. [Kabasakalian, P. et al.: Clin Chem., 19, 522-524 (1973)] and the urinary excretion of uric acid was calculated. As control drugs, probenecid (300 or 1000 mg/kg) and furosemide (30 mg/kg) were used. Data on the individual groups are shown in Table 1 in relative values, with 100 being assigned to each of the volume of urine and the urinary excretion of uric acid in a control group which was administered with an aqueous solution of 0.5% carboxymethylcellulose sodium or 5% gum arabic in place of the solution of a test compound.

NS(=O)(=O)c1cc(C(=O)O)c(NCc2ccco2)cc1Cl [Furosemide, furosemide, reference compound]
response vs control in vivo at 30 mg/kg (Rattus norvegicus, 30 mg/kg oral, female Wistar rats, urine collected up to 5 h, relative value with control = 100, read-out: Urinary excretion of uric acid (%)): 106%
urinary excretion of uric acid (result in words, summary of Table 1): no increase was observed in the uric acid excretion
